Measured values published in paper PMC9213445.

Protein sequences, listed by entry. Tags and fused reporters are not part of them.
UniProt P31153: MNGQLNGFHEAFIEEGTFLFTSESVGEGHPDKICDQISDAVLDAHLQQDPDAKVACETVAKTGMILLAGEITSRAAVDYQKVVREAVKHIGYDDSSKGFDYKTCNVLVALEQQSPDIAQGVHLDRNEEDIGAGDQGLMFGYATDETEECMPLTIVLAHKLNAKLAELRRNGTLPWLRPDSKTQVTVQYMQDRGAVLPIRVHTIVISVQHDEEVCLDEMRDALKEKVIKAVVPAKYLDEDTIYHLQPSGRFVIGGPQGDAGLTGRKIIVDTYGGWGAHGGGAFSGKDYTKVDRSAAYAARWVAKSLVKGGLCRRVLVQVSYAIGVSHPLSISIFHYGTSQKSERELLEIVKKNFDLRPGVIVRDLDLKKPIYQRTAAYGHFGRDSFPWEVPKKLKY

B1: RNF138 (protein, UniProt Q8WVD3 1-245)
chain: MAEDLSAATSYTEDDFYCPVCQEVLKTPVRTTACQHVFCRKCFLTAMRESGAHCPLCRGNVTRRERACPERALDLENIMRKFSGSCRCCAKQIKFYRMRHHYKSCKKYQDEYGVSSIIPNFQISQDSVGNSNRSETSTSDNTETYQENTSSSGHPTFKCPLCQESNFTRQRLLDHCNSNHLFQIVPVTCPICVSLPWGDPSQITRNFVSHLNQRHQFDYGEFVNLQLDEETQYQTAVEESFQVNI
B2: valosin-containing protein p97/p47 complex-interacting protein (VCIP135), found in the TAP-MS (enzyme, UniProt Q96JH7 1-1222)
chain: MSQPPPPPPPLPPPPPPPEAPQTPSSLASAAASGGLLKRRDRRILSGSCPDPKCQARLFFPASGSVSIECTECGQRHEQQQLLGVEEVTDPDVVLHNLLRNALLGVTGAPKKNTELVKVMGLSNYHCKLLSPILARYGMDKQTGRAKLLRDMNQGELFDCALLGDRAFLIEPEHVNTVGYGKDRSGSLLYLHDTLEDIKRANKSQECLIPVHVDGDGHCLVHAVSRALVGRELFWHALRENLKQHFQQHLARYQALFHDFIDAAEWEDIINECDPLFVPPEGVPLGLRNIHIFGLANVLHRPIILLDSLSGMRSSGDYSATFLPGLIPAEKCTGKDGHLNKPICIAWSSSGRNHYIPLVGIKGAALPKLPMNLLPKAWGVPQDLIKKYIKLEEDGGCVIGGDRSLQDKYLLRLVAAMEEVFMDKHGIHPSLVADVHQYFYRRTGVIGVQPEEVTAAAKKAVMDNRLHKCLLCGALSELHVPPEWLAPGGKLYNLAKSTHGQLRTDKNYSFPLNNLVCSYDSVKDVLVPDYGMSNLTACNWCHGTSVRKVRGDGSIVYLDGDRTNSRSTGGKCGCGFKHFWDGKEYDNLPEAFPITLEWGGRVVRETVYWFQYESDSSLNSNVYDVAMKLVTKHFPGEFGSEILVQKVVHTILHQTAKKNPDDYTPVNIDGAHAQRVGDVQGQESESQLPTKIILTGQKTKTLHKEELNMSKTERTIQQNITEQASVMQKRKTEKLKQEQKGQPRTVSPSTIRDGPSSAPATPTKAPYSPTTSKEKKIRITTNDGRQSMVTLKSSTTFFELQESIAREFNIPPYLQCIRYGFPPKELMPPQAGMEKEPVPLQHGDRITIEILKSKAEGGQSAAAHSAHTVKQEDIAVTGKLSSKELQEQAEKEMYSLCLLATLMGEDVWSYAKGLPHMFQQGGVFYSIMKKTMGMADGKHCTFPHLPGKTFVYNASEDRLELCVDAAGHFPIGPDVEDLVKEAVSQVRAEATTRSRESSPSHGLLKLGSGGVVKKKSEQLHNVTAFQGKGHSLGTASGNPHLDPRARETSVVRKHNTGTDFSNSSTKTEPSVFTASSSNSELIRIAPGVVTMRDGRQLDPDLVEAQRKKLQEMVSSIQASMDRHLRDQSTEQSPSDLPQRKTEVVSSSAKSGSLQTGLPESFPLTGGTENLNTETTDGCVADALGAAFATRSKAQRGNSVEELEEMDSQDAEMTNTTEPMDHS

Molecular target: Flag-MAT2A (methionine adenosyltransferase 2A; protein name MATIIα) (human) (UniProt P31153)
Assay: affinity purification with mass spectrometry; TAP-MS: Flag-tagged plasmid transfected into HEK293T, 48 h; lysis in 0.3% NP-40 (150 mM NaCl, 50 mM Tris, pH 7.5); Flag beads at 4 °C for 4 h; SDS-PAGE, gel cut for mass spectrometry

binding | Binder
binds | B1
binds | B2

No constants are given. Whether binding was seen depends on the method and setting. Binding seen in cells or lysates may run through a third protein. Here binding means that the protein was enriched with, or labelled near, the bait; the list need not be complete.
